Article PMC7170535
Results are given in words; binding and its absence hold for the method and conditions named. For some assays here: A result given as binding can be weak or reduced; the word gives no strength.

How the values were obtained:
[1] = biological target: T1, recombinant inter-α-inhibitor heavy chain 1 (rHC1), wild type (human) (UniProt P19827); experiment: SPR; initial SPR screening of fibronectin fragments with rHC1; metal ion-independent
T1 sequence: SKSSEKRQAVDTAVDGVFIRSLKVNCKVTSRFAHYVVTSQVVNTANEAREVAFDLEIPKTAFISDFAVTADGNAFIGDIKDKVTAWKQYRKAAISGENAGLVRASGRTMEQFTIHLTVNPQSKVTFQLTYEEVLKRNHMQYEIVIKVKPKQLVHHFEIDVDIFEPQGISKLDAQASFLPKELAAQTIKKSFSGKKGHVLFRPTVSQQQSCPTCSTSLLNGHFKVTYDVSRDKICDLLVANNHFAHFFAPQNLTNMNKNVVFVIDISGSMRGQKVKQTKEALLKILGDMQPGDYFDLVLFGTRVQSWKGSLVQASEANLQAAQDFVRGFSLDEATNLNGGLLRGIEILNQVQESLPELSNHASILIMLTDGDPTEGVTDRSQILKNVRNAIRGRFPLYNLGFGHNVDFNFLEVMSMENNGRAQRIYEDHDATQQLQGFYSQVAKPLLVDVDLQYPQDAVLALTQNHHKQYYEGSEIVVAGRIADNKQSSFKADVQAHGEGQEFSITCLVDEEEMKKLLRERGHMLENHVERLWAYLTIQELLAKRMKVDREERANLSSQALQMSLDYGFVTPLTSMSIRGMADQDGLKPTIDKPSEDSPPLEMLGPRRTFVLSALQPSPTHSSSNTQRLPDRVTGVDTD

[2] = biological target: T1, recombinant inter-α-inhibitor heavy chain 1 (rHC1), wild type (human); experiment: SPR; 1,500 RU rHC1 proteins immobilised on a C1 chip by amide cross-linking; ligand as analyte; HEPES-buffered saline pH 7.5, 0.05% Tween 20, 2 mM Mg2+, 2 mM Mn2+; 50 μl/min; multicycle kinetics, 1:1 Langmuir; both purified
[3] = biological target: T1, recombinant inter-α-inhibitor heavy chain 1 (rHC1), wild type (human); experiment: SPR; 1,500 RU rHC1 proteins immobilised on a C1 chip by amide cross-linking; ligand as analyte; HEPES-buffered saline pH 7.5, 0.05% Tween 20, 10 mM EDTA; 50 μl/min; multicycle kinetics, 1:1 Langmuir; both purified

binding [2] | binding [3] | Substance | other results
 |  | H120 fragment of fibronectin (heparin-binding region) (domain or fragment) | binding [1]: binds
no binding (tested: 0.156–10 nM) |  | LTBP1 C-terminal region (CT), recombinant domain (domain or fragment) | 
 | no binding (tested: 7.8–500 nM) | TGFβ1, mature growth factor (ligand) | 
no binding (tested: 0.156–10 nM) |  | LTBP1 EGF region, recombinant domain (domain or fragment) | 
 | no binding (tested: 7.8–500 nM) | TGFβ3, mature growth factor (ligand) | 
